Experimental data as given in PubChem BioAssay (EPA / NIEHS).
Inconclusive results, whose numbers are uncertain, are shown with a selection of clear calls. For some assays here: Potencies beside an inconclusive call are fits to weak or partial responses and may not hold up. Active and inactive are the calls of the source. The calls were made as follows: active = hit-call score of the fitted dose curve at least 0.9, where 1 is the maximum; inconclusive = response in the unintended direction; inactive = score below 0.9.

Sequences of proteins named here, by UniProt entry; tags and fusion partners are left off. A change or cut given only in a name is not applied to a line headed by its entry.
UniProt P25929, whole entry, looked up: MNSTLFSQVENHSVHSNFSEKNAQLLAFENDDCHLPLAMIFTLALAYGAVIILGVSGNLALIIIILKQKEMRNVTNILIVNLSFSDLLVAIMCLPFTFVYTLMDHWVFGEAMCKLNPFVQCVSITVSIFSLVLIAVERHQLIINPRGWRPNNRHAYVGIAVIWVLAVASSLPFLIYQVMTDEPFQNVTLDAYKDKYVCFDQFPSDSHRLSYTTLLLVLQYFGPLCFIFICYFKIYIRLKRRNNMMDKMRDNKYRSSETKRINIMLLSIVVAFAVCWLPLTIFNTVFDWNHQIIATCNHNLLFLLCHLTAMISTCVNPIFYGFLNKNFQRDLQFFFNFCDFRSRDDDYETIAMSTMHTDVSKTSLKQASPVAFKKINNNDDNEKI
UniProt P21731: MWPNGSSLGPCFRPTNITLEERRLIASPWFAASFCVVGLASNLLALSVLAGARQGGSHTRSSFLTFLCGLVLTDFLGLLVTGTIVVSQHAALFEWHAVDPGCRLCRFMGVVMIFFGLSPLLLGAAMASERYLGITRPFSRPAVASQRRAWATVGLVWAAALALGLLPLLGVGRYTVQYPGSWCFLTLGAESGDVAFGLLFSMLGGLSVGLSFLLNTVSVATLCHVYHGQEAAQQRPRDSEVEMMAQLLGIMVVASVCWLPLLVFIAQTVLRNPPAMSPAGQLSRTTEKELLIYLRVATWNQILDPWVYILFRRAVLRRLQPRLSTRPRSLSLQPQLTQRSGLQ
UniProt O97775: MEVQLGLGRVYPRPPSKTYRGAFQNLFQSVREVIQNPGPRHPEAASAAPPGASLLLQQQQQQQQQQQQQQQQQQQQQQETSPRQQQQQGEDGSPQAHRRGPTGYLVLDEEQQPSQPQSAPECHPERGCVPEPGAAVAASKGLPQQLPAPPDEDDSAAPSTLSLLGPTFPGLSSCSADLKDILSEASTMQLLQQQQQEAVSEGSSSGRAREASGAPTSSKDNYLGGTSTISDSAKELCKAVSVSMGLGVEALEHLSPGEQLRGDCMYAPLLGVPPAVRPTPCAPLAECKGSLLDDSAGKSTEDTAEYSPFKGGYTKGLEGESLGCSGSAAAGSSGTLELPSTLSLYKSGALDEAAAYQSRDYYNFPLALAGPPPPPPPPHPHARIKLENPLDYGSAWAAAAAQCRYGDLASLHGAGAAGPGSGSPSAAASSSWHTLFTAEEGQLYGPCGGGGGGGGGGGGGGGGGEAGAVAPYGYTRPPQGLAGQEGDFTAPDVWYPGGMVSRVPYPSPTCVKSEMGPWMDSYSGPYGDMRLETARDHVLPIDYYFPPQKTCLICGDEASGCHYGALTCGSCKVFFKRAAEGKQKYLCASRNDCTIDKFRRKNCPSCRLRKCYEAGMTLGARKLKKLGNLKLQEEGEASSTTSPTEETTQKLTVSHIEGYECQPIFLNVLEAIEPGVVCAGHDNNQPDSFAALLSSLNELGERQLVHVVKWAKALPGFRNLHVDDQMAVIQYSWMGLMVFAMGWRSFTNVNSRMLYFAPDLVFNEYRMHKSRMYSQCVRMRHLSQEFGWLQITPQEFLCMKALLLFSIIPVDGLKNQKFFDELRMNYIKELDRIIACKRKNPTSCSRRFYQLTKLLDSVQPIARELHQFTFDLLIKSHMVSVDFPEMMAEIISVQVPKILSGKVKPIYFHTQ
UniProt P06212, whole entry, looked up: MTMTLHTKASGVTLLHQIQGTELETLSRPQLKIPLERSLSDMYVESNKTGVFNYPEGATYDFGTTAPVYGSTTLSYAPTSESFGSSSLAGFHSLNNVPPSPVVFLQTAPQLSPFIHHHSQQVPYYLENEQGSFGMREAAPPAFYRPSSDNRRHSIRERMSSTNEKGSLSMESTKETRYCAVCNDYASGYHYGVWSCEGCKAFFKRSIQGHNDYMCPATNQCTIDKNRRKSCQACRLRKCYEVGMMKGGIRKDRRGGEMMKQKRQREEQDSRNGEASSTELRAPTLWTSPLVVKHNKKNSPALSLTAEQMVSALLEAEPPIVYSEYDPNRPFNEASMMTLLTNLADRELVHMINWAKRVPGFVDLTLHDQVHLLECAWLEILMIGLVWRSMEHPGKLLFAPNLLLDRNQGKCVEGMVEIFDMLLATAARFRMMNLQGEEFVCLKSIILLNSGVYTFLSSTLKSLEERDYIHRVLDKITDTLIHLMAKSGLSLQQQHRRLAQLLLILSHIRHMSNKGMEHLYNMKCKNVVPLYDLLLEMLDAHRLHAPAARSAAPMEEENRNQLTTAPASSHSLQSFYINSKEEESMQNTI
UniProt P03372, whole entry, looked up: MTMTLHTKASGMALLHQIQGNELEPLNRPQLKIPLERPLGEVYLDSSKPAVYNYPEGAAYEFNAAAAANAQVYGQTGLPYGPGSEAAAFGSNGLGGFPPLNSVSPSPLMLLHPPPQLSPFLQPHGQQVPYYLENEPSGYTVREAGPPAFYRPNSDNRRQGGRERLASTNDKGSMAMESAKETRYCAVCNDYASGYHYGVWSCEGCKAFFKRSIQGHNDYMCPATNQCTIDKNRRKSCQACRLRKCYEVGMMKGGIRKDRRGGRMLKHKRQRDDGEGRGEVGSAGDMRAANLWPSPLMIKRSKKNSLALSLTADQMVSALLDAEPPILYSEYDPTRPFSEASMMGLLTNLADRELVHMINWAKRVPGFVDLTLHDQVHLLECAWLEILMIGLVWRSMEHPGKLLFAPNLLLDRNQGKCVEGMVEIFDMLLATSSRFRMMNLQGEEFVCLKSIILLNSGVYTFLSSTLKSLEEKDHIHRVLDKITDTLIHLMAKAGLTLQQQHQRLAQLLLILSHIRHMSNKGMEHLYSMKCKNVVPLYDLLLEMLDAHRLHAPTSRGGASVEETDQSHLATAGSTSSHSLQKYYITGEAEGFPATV
UniProt Q98867: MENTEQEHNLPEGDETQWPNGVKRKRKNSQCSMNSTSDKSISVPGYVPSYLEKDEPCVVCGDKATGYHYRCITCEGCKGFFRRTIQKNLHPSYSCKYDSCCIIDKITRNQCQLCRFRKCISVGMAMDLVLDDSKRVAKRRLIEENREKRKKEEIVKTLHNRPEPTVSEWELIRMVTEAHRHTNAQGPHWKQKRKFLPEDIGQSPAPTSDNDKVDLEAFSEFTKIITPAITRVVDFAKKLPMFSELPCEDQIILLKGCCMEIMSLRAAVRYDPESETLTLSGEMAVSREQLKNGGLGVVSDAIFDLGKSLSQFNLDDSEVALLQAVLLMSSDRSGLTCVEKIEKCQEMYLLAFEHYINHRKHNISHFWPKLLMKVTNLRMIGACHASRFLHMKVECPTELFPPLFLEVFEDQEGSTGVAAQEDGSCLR
UniProt P10586, whole entry, looked up: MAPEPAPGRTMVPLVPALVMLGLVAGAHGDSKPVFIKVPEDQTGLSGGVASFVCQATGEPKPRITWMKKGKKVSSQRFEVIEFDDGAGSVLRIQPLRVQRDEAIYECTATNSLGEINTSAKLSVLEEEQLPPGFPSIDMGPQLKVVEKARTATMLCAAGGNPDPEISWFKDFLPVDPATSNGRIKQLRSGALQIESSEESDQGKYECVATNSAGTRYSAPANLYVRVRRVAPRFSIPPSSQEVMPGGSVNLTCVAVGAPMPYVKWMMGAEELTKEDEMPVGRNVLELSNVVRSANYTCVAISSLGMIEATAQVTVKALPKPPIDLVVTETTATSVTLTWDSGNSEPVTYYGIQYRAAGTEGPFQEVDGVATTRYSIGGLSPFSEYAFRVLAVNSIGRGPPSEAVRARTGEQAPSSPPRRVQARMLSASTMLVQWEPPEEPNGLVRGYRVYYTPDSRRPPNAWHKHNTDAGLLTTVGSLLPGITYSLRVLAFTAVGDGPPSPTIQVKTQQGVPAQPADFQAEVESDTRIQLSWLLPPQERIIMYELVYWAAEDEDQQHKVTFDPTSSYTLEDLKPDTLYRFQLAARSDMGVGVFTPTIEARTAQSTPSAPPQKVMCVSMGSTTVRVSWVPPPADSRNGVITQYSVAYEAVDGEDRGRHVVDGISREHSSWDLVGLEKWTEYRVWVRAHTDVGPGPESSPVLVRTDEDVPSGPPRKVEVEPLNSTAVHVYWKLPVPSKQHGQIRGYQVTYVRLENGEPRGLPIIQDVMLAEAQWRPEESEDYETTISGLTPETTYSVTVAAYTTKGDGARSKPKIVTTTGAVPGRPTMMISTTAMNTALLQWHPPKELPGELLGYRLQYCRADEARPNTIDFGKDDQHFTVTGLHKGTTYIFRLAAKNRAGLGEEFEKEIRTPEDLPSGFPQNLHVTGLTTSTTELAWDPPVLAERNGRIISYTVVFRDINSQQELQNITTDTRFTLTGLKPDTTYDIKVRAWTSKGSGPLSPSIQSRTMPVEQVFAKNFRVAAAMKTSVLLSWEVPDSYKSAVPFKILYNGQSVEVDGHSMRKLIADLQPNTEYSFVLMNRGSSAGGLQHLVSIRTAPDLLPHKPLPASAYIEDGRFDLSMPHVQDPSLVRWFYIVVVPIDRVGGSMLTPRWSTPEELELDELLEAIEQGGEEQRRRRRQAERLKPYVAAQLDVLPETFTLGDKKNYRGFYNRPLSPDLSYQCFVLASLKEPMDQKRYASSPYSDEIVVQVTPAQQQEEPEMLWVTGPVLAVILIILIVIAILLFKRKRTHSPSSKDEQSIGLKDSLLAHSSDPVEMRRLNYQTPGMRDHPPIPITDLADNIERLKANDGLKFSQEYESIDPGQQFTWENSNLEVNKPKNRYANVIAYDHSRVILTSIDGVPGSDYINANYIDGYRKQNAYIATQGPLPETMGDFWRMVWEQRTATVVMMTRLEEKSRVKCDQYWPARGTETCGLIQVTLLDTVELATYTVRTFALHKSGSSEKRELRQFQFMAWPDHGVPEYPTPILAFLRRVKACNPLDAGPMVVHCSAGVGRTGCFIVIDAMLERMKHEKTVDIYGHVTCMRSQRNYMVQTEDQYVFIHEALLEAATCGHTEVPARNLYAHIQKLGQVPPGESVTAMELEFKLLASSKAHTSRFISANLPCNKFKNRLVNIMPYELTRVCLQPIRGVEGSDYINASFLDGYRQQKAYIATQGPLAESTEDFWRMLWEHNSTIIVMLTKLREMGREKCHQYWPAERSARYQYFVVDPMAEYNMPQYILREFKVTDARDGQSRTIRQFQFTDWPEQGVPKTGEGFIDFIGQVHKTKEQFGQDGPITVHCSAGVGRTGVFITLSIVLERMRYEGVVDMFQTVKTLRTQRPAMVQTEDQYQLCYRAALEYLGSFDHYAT
UniProt P50406, whole entry, looked up: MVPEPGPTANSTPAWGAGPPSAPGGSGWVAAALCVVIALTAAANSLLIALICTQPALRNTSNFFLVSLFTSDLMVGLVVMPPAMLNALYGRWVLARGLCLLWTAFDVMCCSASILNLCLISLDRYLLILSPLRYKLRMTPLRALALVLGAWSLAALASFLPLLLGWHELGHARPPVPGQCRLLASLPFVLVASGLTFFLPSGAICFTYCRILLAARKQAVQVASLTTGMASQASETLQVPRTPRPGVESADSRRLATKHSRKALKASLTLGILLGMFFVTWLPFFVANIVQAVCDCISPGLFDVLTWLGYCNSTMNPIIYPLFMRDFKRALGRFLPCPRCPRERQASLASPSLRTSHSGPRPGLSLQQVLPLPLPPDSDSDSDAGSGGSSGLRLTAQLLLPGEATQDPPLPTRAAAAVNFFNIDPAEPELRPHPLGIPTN
UniProt P18825, whole entry, looked up: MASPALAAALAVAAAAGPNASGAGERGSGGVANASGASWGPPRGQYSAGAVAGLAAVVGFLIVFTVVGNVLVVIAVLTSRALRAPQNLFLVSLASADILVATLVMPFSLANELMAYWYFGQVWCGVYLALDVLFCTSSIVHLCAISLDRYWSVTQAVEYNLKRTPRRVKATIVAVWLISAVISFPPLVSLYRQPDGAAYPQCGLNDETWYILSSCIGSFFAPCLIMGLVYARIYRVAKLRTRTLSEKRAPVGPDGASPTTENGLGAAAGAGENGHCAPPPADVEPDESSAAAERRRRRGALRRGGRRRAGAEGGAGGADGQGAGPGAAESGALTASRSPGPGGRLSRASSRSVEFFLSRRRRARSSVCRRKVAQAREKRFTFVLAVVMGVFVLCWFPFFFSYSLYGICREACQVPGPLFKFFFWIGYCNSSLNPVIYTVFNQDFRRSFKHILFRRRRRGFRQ
UniProt P24530: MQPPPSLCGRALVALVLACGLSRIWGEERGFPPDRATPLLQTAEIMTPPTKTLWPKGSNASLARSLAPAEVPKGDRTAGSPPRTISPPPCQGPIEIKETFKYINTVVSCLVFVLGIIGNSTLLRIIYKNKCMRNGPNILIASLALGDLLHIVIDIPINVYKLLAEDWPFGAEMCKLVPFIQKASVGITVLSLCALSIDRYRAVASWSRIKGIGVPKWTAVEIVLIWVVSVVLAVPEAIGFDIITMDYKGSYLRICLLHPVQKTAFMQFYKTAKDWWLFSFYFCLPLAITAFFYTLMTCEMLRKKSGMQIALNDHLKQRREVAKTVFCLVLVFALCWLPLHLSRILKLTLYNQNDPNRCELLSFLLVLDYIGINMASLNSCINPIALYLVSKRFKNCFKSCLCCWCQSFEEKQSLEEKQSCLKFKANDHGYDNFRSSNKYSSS

How the values were obtained:
[1] = tested on: guinea pig Leukotriene B4 Receptor (LTB4), gene 100379538; assay: NVS_GPCR_gLTB4: NovaScreen (NVS) G Protein-Coupled Receptor Assay for guinea pig Leukotriene B4 Receptor (LTB4) (AID 2283247)
In short: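 Radioligand displacement on guinea pig spleen membranes, filter-based scintillation counting 2 h after dosing. Primary duplicate single point at 25 uM; hits over threshold (e.g. 30% inhibition) run in concentration-response up to 50 uM, DMSO baseline.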

[2] = molecular target: human Neuropeptide Receptor Y1 (NPY1), NPY1R (gene 4886) (UniProt P25929); assay: NVS_GPCR_hNPY1: NovaScreen (NVS) G Protein-Coupled Receptor Assay for human Neuropeptide Receptor Y1 (NPY1) (AID 2283276)
In short: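 Cell-free radioligand binding using receptor extracted from SK-N-MC cells, 1 h incubation, filter-based scintillation counting. Primary screen single concentration 25 uM in duplicate; actives followed in concentration series. Loss of bound signal scored versus DMSO.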

[3] = molecular target: human Thromboxane A2 Receptor (TXA2), TBXA2R (gene 6915) (UniProt P21731); assay: NVS_GPCR_hTXA2: NovaScreen (NVS) G Protein-Coupled Receptor Assay for human Thromboxane A2 Receptor (TXA2) (AID 2283282);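 also: actives reduce bound radioligand signal relative to DMSO baseline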
In short: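 Filter scintillation counting of bound radioligand, human platelet protein, 1 h exposure. Single-concentration duplicates (25 uM) first, concentration-response follow-up for actives. Binding loss scored against DMSO baseline.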

[4] = molecular target: guinea pig Bradykinin Receptor B2 (BK2), BDKRB2 (gene 100135486) (UniProt O70526); assay: NVS_GPCR_gBK2: NovaScreen (NVS) G Protein-Coupled Receptor Assay for guinea pig Bradykinin Receptor B2 (BK2) (AID 2283292)
In short: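 Radioligand displacement on guinea pig ileum membranes for 1 h, read by filter-based scintillation counting; loss of signal relative to DMSO. Compounds were screened in duplicate at 25 uM, and those passing the threshold were retested in concentration-response up to 50 uM.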

[5] = molecular target: chimpanzee Androgen Receptor (AR), AR (gene 747460) (UniProt O97775); assay: NVS_NR_cAR: NovaScreen (NVS) Nuclear Receptor Binding Assay for chimpanzee Androgen Receptor (AR) (AID 2283346);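 also: radioligand displacement from AR measured by scintillation counting in a cell-free assay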
In short: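 Cell-free radioligand displacement using receptor protein extracted from Sf9/Sf21 cells; bound radioligand measured by scintillation counting 72 hours after chemical dosing. Loss of signal versus DMSO baseline indicates binding; primary screen single-concentration in duplicate at 25 uM, actives followed in concentration series.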

[6] = tested on: zebrafish Estrogen Receptor (ESR2B), gene 317733; assay: ATG_zfER2b_XSP1: Attagene TRANS-FACTORIAL Multi-Species (XSP1) HepG2 Assay for zebrafish Estrogen Receptor (ESR2B) (AID 2283773)
In short: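 HepG2 cells transiently transfected with multiple GAL4-UAS reporter units expressing chimeric zebrafish ER2b-Gal4; 24 h chemical exposure with 3 nM 6-alpha-fluorotestosterone present. Reporter mRNA measured by RT-PCR and capillary electrophoresis; gain of signal fitted versus DMSO.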

[7] = tested on: frog Estrogen Receptor (ESR2), gene 100174814; assay: ATG_frER2_XSP1: Attagene TRANS-FACTORIAL Multi-Species (XSP1) HepG2 Assay for frog Estrogen Receptor (ESR2) (AID 2283774)
In short: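 HepG2 cells transiently transfected with GAL4-UAS multiplexed reporter units expressing chimeric NR-Gal4 proteins; reporter mRNA measured 24 h after dosing by RT-PCR, FAM labeling, HpaI digestion and capillary electrophoresis. Gain-of-signal relative to DMSO; 3 nM 6-alpha-fluorotestosterone present.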

[8] = tested on: zebrafish Estrogen Receptor (ESR2A), gene 317734; assay: ATG_zfER2a_XSP1: Attagene TRANS-FACTORIAL Multi-Species (XSP1) HepG2 Assay for zebrafish Estrogen Receptor (ESR2A) (AID 2283778)
In short: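 HepG2 cells transiently transfected with multiplexed GAL4-UAS reporter units and chimeric NR-GAL4 receptors; 24 h compound exposure with 3 nM 6-alpha-fluorotestosterone present. Reporter mRNA quantified by RT-PCR and capillary electrophoresis, gain-of-signal fitted relative to DMSO.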

[9] = molecular target: chicken Estrogen Receptor (ESR1), ESR1 (gene 396099) (UniProt P06212); assay: ATG_chERa_XSP1: Attagene TRANS-FACTORIAL Multi-Species (XSP1) HepG2 Assay for chicken Estrogen Receptor (ESR1) (AID 2283779)
In short: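 HepG2 cells transiently transfected with multiplexed GAL4-UAS reporter units expressing chimeric NR-Gal4 proteins; 3 nM 6-alpha-fluorotestosterone present. Reporter mRNA measured 24 h after dosing by RT-PCR, FAM labelling, HpaI digest and capillary electrophoresis; gain of signal versus DMSO.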

[10] = molecular target: Estrogen receptor (Homo sapiens) (UniProt P03372); assay: ATG_hERa_XSP1: Attagene TRANS-FACTORIAL Multi-Species (XSP1) HepG2 Assay for human Estrogen Receptor (ESR1) (AID 2283780)
In short: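 HepG2 cells transiently transfected with GAL4-UAS reporter units and chimeric NR-Gal4 constructs; 24 h after dosing, reporter mRNA quantified by RT-PCR and capillary electrophoresis. Medium contained 3 nM 6-alpha-fluorotestosterone; activity fitted as gain-of-signal versus DMSO.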

[11] = molecular target: human Androgen Receptor (AR), AR (gene 367) (UniProt P10275); assay: ATG_hAR_XSP1: Attagene TRANS-FACTORIAL Multi-Species (XSP1) HepG2 Assay for human Androgen Receptor (AR) (AID 2283785)
[12] = molecular target: Nuclear receptor subfamily 1 group I member 2 (Mus musculus) (UniProt O54915); assay: ATG_mPXR_XSP1: Attagene TRANS-FACTORIAL Multi-Species (XSP1) HepG2 Assay for mouse Pregnane X Receptor (PXR) (AID 2283803)
In short: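 Transiently transfected HepG2 cells expressing a receptor-Gal4 chimera drive a GAL4-UAS reporter; 3 nM 6-alpha-fluorotestosterone included. Reporter mRNA read 24 h post-dose by RT-PCR and capillary electrophoresis; gain of signal relative to DMSO.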

[13] = molecular target: zebrafish Thyroid Hormone Receptor alpha (TRa), thraa (gene 30670) (UniProt Q98867); assay: ATG_zfTRa_XSP1: Attagene TRANS-FACTORIAL Multi-Species (XSP1) HepG2 Assay for zebrafish Thyroid Hormone Receptor alpha (TRa) (AID 2283807)
In short: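 HepG2 cells transiently transfected with GAL4-UAS reporter units including a zebrafish TRa–Gal4 chimera, dosed 24 h with 3 nM 6-alpha-fluorotestosterone present. Reporter mRNA quantified by RT-PCR and capillary electrophoresis; gain versus DMSO.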

[14] = tested on: zebrafish Estrogen Receptor (ER2b), gene 317733; assay: ATG_zfER2b_XSP2: Attagene TRANS-FACTORIAL Multi-Species (XSP2) HepG2 Assay for zebrafish Estrogen Receptor (ER2b) (AID 2283823);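 also: fitted upward as reporter gain over DMSO so potency reflects activation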
In short: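 Transfect HepG2 with GAL4-UAS reporter constructs; dose chemicals, 24 h; isolate RNA, RT-PCR, FAM-label, HpaI digest; capillary electrophoresis. Gain-of-signal vs DMSO.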

[15] = molecular target: human Protein Tyrosine Phosphatase Receptor Type F (PTPRF), PTPRF (gene 5792) (UniProt P10586); assay: NVS_ENZ_hPTPRF: NovaScreen (NVS) Enzymatic Assay for human Protein Tyrosine Phosphatase Receptor Type F (PTPRF) (AID 2283213)
In short: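 Cell-free fluorescence enzyme assay with recombinant protein and substrate; product separated by electrophoretic mobility shift. Read 1 h after dosing, single 25 uM duplicate screen, then concentration-response up to 50 uM; loss of signal vs DMSO.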

[16] = NVS_GPCR_bNPY_NonSelective: NovaScreen (NVS) G Protein-Coupled Receptor Assay for bovine Neuropeptide Y (NPY) Receptor, Non-selective Binding (AID 2283245)
In short: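 Bovine hippocampal membranes incubated 1 hour with radioligand and test chemical. Bound ligand measured by filter-based scintillation counting. Single-concentration screen at 25 uM in duplicate, then concentration-response up to 50 uM.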

[17] = molecular target: human Serotonin, 5-Hydroxytryptamine Receptor 6 (5HT6), HTR6 (gene 3362) (UniProt P50406); assay: NVS_GPCR_h5HT6: NovaScreen (NVS) G Protein-Coupled Receptor Assay for human Serotonin, 5-Hydroxytryptamine Receptor 6 (5HT6) (AID 2283253)
In short: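 Radioligand binding to 5HT6 in HEK293-derived membranes, cell-free, 1 h after dosing; bound ligand measured by filter-based scintillation counting. Primary screen in duplicate at 25 uM; actives retested in concentration series.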

[18] = molecular target: human Adrenergic, Alpha 2c Receptor (Adra2C), ADRA2C (gene 152) (UniProt P18825); assay: NVS_GPCR_hAdra2C: NovaScreen (NVS) G Protein-Coupled Receptor Assay for human Adrenergic, Alpha 2c Receptor (Adra2C) (AID 2283259)
In short: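 Radioligand binding on Sf9-expressed receptor membranes, 1 h after chemical dosing, filter-based scintillation read-out. Loss of binding fitted positively versus DMSO; primary duplicate screen at 25 uM, actives retested in concentration series.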

[19] = molecular target: Beta-2 adrenergic receptor (Homo sapiens) (UniProt P07550); assay: NVS_GPCR_hAdrb2: NovaScreen (NVS) G Protein-Coupled Receptor Assay for human Adrenergic, Beta 2 Receptor (Adrb2) (AID 2283261)
In short: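 Filter-based radioligand binding using receptor prepared from CHO cells, 1 h incubation, scintillation counting. Primary screen in duplicate at 25 uM, actives retested in concentration series; loss of binding relative to DMSO.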

[20] = molecular target: human Endothelin Receptor Type B (ETB), EDNRB (gene 1910) (UniProt P24530); assay: NVS_GPCR_hETB: NovaScreen (NVS) G Protein-Coupled Receptor Assay for human Endothelin Receptor Type B (ETB) (AID 2283267)
In short: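 Human astrocytoma cell membranes; radioligand competitive binding read by filter scintillation counting 4 hours after dosing. Single-concentration duplicate screen at 25 uM, then singleton concentration-response up to 50 uM; loss of signal versus DMSO.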

SMILES	outcome [1]	AC50 [2]	AC50 [3]	outcome [4]	outcome [5]	AC50 [6]	AC50 [7]	AC50 [8]	outcome [9]	AC50 [10]	AC50 [11]	AC50 [12]	outcome [13]	AC50 [14]	AC50 [15]	AC50 [16]	AC50 [17]	AC50 [18]	AC50 [19]	AC50 [20]
Cc1oc(-c2ccccc2)nc1CCOc1ccc(C[C@H](Nc2ccccc2C(=O)c2ccccc2)C(=O)O)cc1	inactive	inconclusive: 0.0615 µM	active: 3.52 µM	inactive	inactive	inconclusive: 0.00306 µM	inconclusive: 0.1 µM	inconclusive: 0.000547 µM	inactive	inconclusive: 0.1 µM	inconclusive: 0.1 µM	inconclusive: 0.000231 µM	inactive	inconclusive: 0.09 µM	–	–	–	–	–	–
Cc1cc(SC2=C(O)C[C@@](CCc3ccc(N)cc3)(C(C)C)OC2=O)c(C(C)(C)C)cc1CO	–	–	–	–	–	–	–	–	–	–	–	–	–	–	inconclusive: 25 µM	inconclusive: 25 µM	inconclusive: 44.4 µM	inconclusive: 25 µM	inconclusive: 25 µM	inconclusive: 25 µM
